This note sets out measurements from PubChem BioAssay AID1508615 (Milbrandt Lab, Department of Genetics, Washington …, 2020).

The chains behind the UniProt entries cited, without tags or fusion partners. Where a name states a change or a piece, a line headed by the entry shows the natural chain unless it says otherwise.
UniProt Q6SZW1: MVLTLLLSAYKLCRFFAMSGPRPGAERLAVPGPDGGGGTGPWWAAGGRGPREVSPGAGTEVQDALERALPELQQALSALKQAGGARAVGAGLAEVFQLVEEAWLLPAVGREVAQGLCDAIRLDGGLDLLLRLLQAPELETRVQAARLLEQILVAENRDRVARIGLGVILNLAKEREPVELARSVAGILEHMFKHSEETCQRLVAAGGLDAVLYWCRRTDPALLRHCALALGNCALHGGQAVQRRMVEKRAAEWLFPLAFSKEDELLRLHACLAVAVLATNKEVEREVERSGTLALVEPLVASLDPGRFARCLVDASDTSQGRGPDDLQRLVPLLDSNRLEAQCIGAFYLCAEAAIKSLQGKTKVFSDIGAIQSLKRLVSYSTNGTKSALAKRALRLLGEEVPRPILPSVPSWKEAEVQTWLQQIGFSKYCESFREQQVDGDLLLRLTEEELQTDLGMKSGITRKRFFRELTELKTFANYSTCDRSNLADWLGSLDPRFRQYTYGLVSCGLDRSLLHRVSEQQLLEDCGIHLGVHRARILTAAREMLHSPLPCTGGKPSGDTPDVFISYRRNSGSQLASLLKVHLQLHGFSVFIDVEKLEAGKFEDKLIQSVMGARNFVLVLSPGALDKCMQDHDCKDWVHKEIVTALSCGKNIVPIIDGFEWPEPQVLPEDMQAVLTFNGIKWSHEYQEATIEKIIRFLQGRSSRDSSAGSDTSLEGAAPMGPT

In all, about 1,600 compounds went through this assay and about 20 (1%) were called active.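 The calls were made as follows: active = ratio of uncleaved NAD to its breakdown product ADP-ribose above 4, meaning the enzyme was inhibited; inactive = the rest.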 The list shows a part of the results.

The assay deals with NAD(+) hydrolase SARM1 (Homo sapiens) (UniProt Q6SZW1). Nature of the assay: inhibition of SAM-TIR NAD hydrolysis to ADPR – cell lysate, HPLC readout, primary screen (AID 1508615).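 Also: substrate NAD at 5 µM with 60 min at 37 °C.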 The note with it: HEK293T SAM-TIR lysate, NAD/ADPR ratio by HPLC; at 5 µM; hits give high values.
As to `FC(F)(F)c1cccc(OCC2CNC(=S)O2)c1` (centres undefined), the NAD/ADPR ratio was inactive: 3.
Take `O=C(Nc1ccc(Cl)c(Cl)c1)c1ccc(Cl)c(Cl)c1`: the NAD/ADPR ratio was inactive: 3.
Take `Cc1[nH]c(N=Nc2ccccc2)nc1N=Nc1ccccc1`: the NAD/ADPR ratio was inactive: 3.
Take `CC1(C)O[C@H]2CC(=O)OC[C@]23[C@H]2CC[C@@]4(C)[C@H](c5ccoc5)OC(=O)[C@H]5O[C@]54[C@]2(C)C(=O)C[C@@H]13`: the NAD/ADPR ratio was inactive: 3.
With `COc1cc2c(cc1OC)C(/C=C/c1ccco1)=NCC2`, the NAD/ADPR ratio is inactive: 3.
With `O=C(Nc1ccc(NC(=O)c2ccncc2)cc1)c1ccncc1`, the NAD/ADPR ratio was inactive: 3.
As for `CCOc1ccc(NC(=S)NC(=O)c2ccco2)cc1`, the figure is inactive: 3; as for `CC1CC=C(O)C12OCC(C)(C)CO2` (centres undefined), inactive: 3.
With `COCC(O)Cn1ccnc1[N+](=O)[O-]` (centres undefined) the figure was inactive: 3; with `COC(=O)C1=C(C(=O)OC)[C@@H]2CCC[C@H]1[C@H]1[C@@H]2N=NN1c1ccccc1`, inactive: 3; with `O=C1OCC/C1=C\c1ccc2c(c1)OCO2`, inactive: 3.
With `O=C(/C=C/c1cccnc1)c1ccccc1O` the figure was inactive: 3; with `CC1(C)CCCC2(C)C(OCCO)=CC(=O)C=C12` (centres undefined), inactive: 3; with `COc1ccccc1N1C(=O)CC(Sc2ccccc2N)C1=O` (centres undefined), inactive: 3.
In the case of `O=C1NCN(CCO)CN1`, the NAD/ADPR ratio was inactive: 3.
Regarding `Cc1csc(NC(=O)c2ccc(C(=O)Nc3nc(C)cs3)cc2)n1`, the NAD/ADPR ratio was inactive: 3.
In the case of `CC(=O)/C=C(\C)Nc1ccccc1O`, the NAD/ADPR ratio was inactive: 3.
With `NC(=O)c1nc2c([nH]c1=O)CCCC2` the figure was inactive: 3.
With `O=C(O)/C=C\c1cc2c(cc1[N+](=O)[O-])OCO2`, the NAD/ADPR ratio was inactive: 3.
For the compound `O=C(O)CCC1(c2ccccc2)NC(=O)NC1=O` (centres undefined), the NAD/ADPR ratio was inactive: 3.
Turning to `CC(=O)OCCn1c([N+](=O)[O-])cnc1/C=[N+](\[O-])C1CCCCC1`, the NAD/ADPR ratio is inactive: 3.
For `CCCCCCCCCCC(C(=O)O)C1(C(=O)O)CCC(=O)O1` (centres undefined), the NAD/ADPR ratio was inactive: 3.
For the compound `Cn1ncc2c(Nc3cccc(Cl)c3)nc(Nc3cccc(Cl)c3)nc21`, the NAD/ADPR ratio was inactive: 3.
With `CN1N=C(N)c2cn([C@@H]3O[C@H](COP(=O)(O)O)[C@@H](O)[C@H]3O)c3ncnc1c23` the figure was inactive: 3; with `CC1(C)CC(=O)C(CC(=O)c2ccccc2)=C(NN=C(N)N)C1`, inactive: 3.
As for `Cc1ccc(S(=O)c2ccc([N+](=O)[O-])c3nonc23)cc1` (centres undefined), the figure is active: 13.2.
Regarding `O=C(NN1CCCCC1)NN1CCCCC1`, the NAD/ADPR ratio was inactive: 3.
In the case of `Cc1cc(C)c2c(SC(C)C)nc(N)nc2n1`, the NAD/ADPR ratio is inactive: 3.
On to `CC1=C2C3OC(=O)C(C)C3CCC2(C)C=C(Cl)C1=O` (centres undefined), for which the NAD/ADPR ratio is inactive: 3.
Consider `Cc1c(C(C)(C(=O)O)c2c(C)n(C)c3ccccc23)c2ccccc2n1C`, for which the NAD/ADPR ratio is inactive: 3.
Turning to `O=C(O)/C=C/C(=O)Nc1cccc2cccnc12`, the NAD/ADPR ratio is inactive: 3.
Take `O=C1Cc2cccc(=O)c(O)c2C(=O)O1`: the NAD/ADPR ratio is inactive: 3.
With `Cc1ccc(C=C2C(Cl)=C(Cl)C(Cl)=C2Cl)cc1` the figure was inactive: 3.
With `O=C(Nc1ccc(Nc2ccccc2)cc1)Nc1ccccc1Cl` the figure was inactive: 3; with `Cn1cnc([N+](=O)[O-])c1N=C(N)N`, inactive: 3; with `COc1cc(-c2ccc(Nc3ccccc3C(=O)O)c(OC)c2)ccc1Nc1ccccc1C(=O)O`, inactive: 3.
For `COC(=O)c1cc(C)[nH]c2c(C)cc3nc4ccccc4c3c12`, the NAD/ADPR ratio was inactive: 3.
As for `Oc1ccc(NC(=S)Nc2ccccc2)cc1`, the figure is inactive: 3; as for `CC(=O)OC1C=CCC2C(=O)c3cccc(O)c3C(O)C12` (centres undefined), inactive: 3; as for `CC1(CN2CCCC2)CCC(NC(=O)C(c2ccccc2)c2ccccc2)C(C)(C)O1` (centres undefined), inactive: 3.
In the case of `C#CC(C)OCC1CNC(=S)O1` (centres undefined), the NAD/ADPR ratio was inactive: 3.
As to `O=C(O)c1cccc2c1C(=O)c1cccc3snc-2c13`, the NAD/ADPR ratio was inactive: 3.
As to `O=C(Nc1ccc(Nc2ccncc2)cc1)c1ccc(Nc2ccnc3ccc([N+](=O)[O-])cc23)cc1[N+](=O)[O-]`, the NAD/ADPR ratio was inactive: 3.
Regarding `S=c1cn[nH]c2ccccc12`, the NAD/ADPR ratio was inactive: 3.
With `CCOC(=O)C(Cc1ccc(O)cc1)Nc1nc2ccccc2o1` (centres undefined), the NAD/ADPR ratio was inactive: 3.
Turning to `Clc1ccccc1-c1nc2ccccc2[nH]1`, the NAD/ADPR ratio was inactive: 3.
`Nc1nc2nn(-c3ccccc3)nc2c(=O)[nH]1`: the NAD/ADPR ratio is inactive: 3.
With `COc1cc(N=Nc2cccc(S(N)(=O)=O)c2)c2ccccc2c1N`, the NAD/ADPR ratio is inactive: 3.
For `CCCCNc1cc(Cl)nc(N)n1`, the NAD/ADPR ratio is inactive: 3.
`CC(OC(=O)Nc1cccc(Cl)c1)C(=O)O` (centres undefined): the NAD/ADPR ratio was inactive: 3.
With `CC(=O)Nc1ccc(Cc2nc3c([nH]2)c(=O)n(C)c(=O)n3C)cc1` the figure was inactive: 3; with `O=C1OC(CN(Cc2ccccc2)Cc2ccccc2)CN1/N=C/c1ccc([N+](=O)[O-])o1` (centres undefined), inactive: 3; with `Cc1c(Cl)ccc2c(C(=O)O)cc(-c3ccccc3)nc12`, inactive: 3.
With `CCc1nc(N)nc(N)c1-c1ccc(N(C)Cc2ccccc2)c([N+](=O)[O-])c1` the figure was inactive: 3.
On to `CCOC(=O)c1c(C)oc(C)c(C(=O)OCC)c1=O`, for which the NAD/ADPR ratio was inactive: 3.
On to `C/C(=N/NC(N)=O)c1ccc(Cl)c(-n2cccc2)c1`, for which the NAD/ADPR ratio is inactive: 3.
With `Clc1ccc(-c2n[nH]c3c2Cc2ccccc2-3)cc1Cl` the figure was inactive: 3; with `Nc1c(Cl)ncnc1NCCO`, inactive: 3; with `CC1=CC2(C)NC(=O)C(C)C12` (centres undefined), inactive: 3.
As for `O=C1NC(=O)C(Cc2ccccc2)(c2cccnc2)N1` (centres undefined), the NAD/ADPR ratio is inactive: 3.
With `Nc1ccc(OC(=O)Nc2ccc(O)cc2)cc1`, the NAD/ADPR ratio was inactive: 3.
Regarding `O=C1NC(=O)C2(CCc3ccccc32)N1` (centres undefined), the NAD/ADPR ratio is inactive: 3.
Take `Cc1ccc2ccc(C#N)cc2c1O`: the NAD/ADPR ratio was inactive: 3.
On to `O=[N+]([O-])c1ccc(-c2ncc(-c3ccc(Br)cc3)o2)cc1`, for which the NAD/ADPR ratio is inactive: 3.
Consider `CCOC(=O)c1nn(C)c2[nH]c(=O)n(C)c(=O)c12`, for which the NAD/ADPR ratio is inactive: 3.
For `O=C(O)CCN1c2ccccc2Sc2ccccc21`, the NAD/ADPR ratio is inactive: 3.
As for `OCc1ncc(-c2ccccc2)s1`, the NAD/ADPR ratio is inactive: 3.
Regarding `Cc1nc2c(O)cccc2cc1CO`, the NAD/ADPR ratio was inactive: 3.
Regarding `CCOC(=O)c1ccc(NC(=O)Oc2cc(C)c(Cl)cc2C(C)C)cc1`, the NAD/ADPR ratio is inactive: 3.
With `CC(CCC(=O)O)C1CC[C@@]2(C)C3C(=O)CC4C(C)(C)C(O)CC[C@]4(C)C3C(=O)C[C@]12C` (some centres undefined) the figure was inactive: 3; with `CSC1=NC=C(C#N)C2=NC(c3ccc(Cl)cc3)NN12` (centres undefined), inactive: 3; with `Cn1ncc2c(Nc3ccc(O)cc3)nc(Cl)nc21`, inactive: 3.
With `O=C(NC(=S)Nc1ccccn1)c1ccccc1` the figure was inactive: 3; with `Cc1ccc(-c2cssc2=S)cc1`, inactive: 3; with `O=c1[nH]c(=S)c2[nH]c(=S)n(-c3ccccc3)c2[nH]1`, inactive: 3.
As for `O=C(c1ccccc1)c1ccc[nH]1`, the NAD/ADPR ratio was inactive: 3.
Take `Nc1ccc(C(=O)Nc2ccc(NC(=O)c3ccco3)c(O)c2)cc1`: the NAD/ADPR ratio is inactive: 3.
`Cc1ccc(S(=O)(=O)Oc2cc(N)c3c(n2)CCC3)cc1`: the NAD/ADPR ratio was inactive: 3.
With `Cc1cc(NC(=O)Nc2cc(F)ccc2F)no1` the figure was inactive: 3.
In the case of `O=C(CN1CCCC1)Nc1nc(-c2ccc(Cl)cc2)cs1`, the NAD/ADPR ratio is inactive: 3.
For the compound `COC(=O)c1ccccc1NCCO`, the NAD/ADPR ratio is inactive: 3.
For the compound `COc1cc2c(cc1OC)C(C1(O)CCCCC1)NCC2` (centres undefined), the NAD/ADPR ratio is inactive: 3.
As to `Cc1nn(-c2ccccc2)c2c1C(c1ccc([N+](=O)[O-])cc1)C(C#N)=C(N)O2` (centres undefined), the NAD/ADPR ratio is inactive: 3.
In the case of `O=S(=O)(Oc1ccc(Cl)cc1)c1cccc2cccnc12`, the NAD/ADPR ratio was inactive: 3.
With `Nc1ccc(C(=O)c2cccs2)cn1` the figure was inactive: 3; with `CC(C)=CCC1=C(OCC(=O)O)C(=O)c2ccccc2C1=O`, inactive: 3.
As for `O=C(Nc1ccc(Oc2ccc(NC(=O)Nc3ccccc3Cl)cc2)cc1)Nc1ccccc1Cl`, the NAD/ADPR ratio was inactive: 3.
In the case of `COc1cc([N+](=O)[O-])ccc1NC(=O)Oc1ccc(NC(C)=O)cc1`, the NAD/ADPR ratio was inactive: 3.
As to `CC1(C)N=C(N)N=C(N)N1c1ccc(OCCCOc2ccccc2)c(Cl)c1`, the NAD/ADPR ratio was inactive: 3.
As for `O=C(O)CSc1ccc(NC(=O)Nc2ccccc2F)cc1`, the NAD/ADPR ratio was inactive: 3.
As for `COCC(=O)Oc1cc(-c2ccc(C)cc2C)c(OC(=O)COC)c(-c2ccc(C)cc2C)c1`, the NAD/ADPR ratio is inactive: 3.
Consider `O=C(O)C(Cc1cn[nH]n1)=NO`, for which the NAD/ADPR ratio is inactive: 3.
In the case of `Cc1cc(O)cc2c1[C@H]1CC[C@]3(C)C(=O)CC[C@H]3[C@@H]1C=C2`, the NAD/ADPR ratio is inactive: 3.
With `CC(C)c1ncc(CO)n1Cc1c(Cl)cccc1Cl` the figure was inactive: 3; with `O=C(O)Cc1ccc(N=Nc2c(O)c(C(=O)O)cc3ccccc23)cc1`, inactive: 3.
With `NS(=O)(=O)c1ccc(NC(=S)NC(=O)c2ccco2)cc1`, the NAD/ADPR ratio is inactive: 3.
`CC(=O)Oc1ccc2cc(-c3ccccc3)c(=O)oc2c1`: the NAD/ADPR ratio was inactive: 3.
Turning to `Cn1ncc2c(NCc3ccccc3)ncnc21`, the NAD/ADPR ratio is inactive: 3.
`COc1ccc(NC(=O)N2CCN(C(=O)Nc3ccc(OC)cc3)CC2)cc1`: the NAD/ADPR ratio was inactive: 3.
As to `S=c1nc[nH]c2c1cnn2-c1ccccc1`, the NAD/ADPR ratio was inactive: 3.
Regarding `CC(C)c1ccc2c(c1)CCC1C(C)(CN)CCCC21C` (centres undefined), the NAD/ADPR ratio is inactive: 3.
For the compound `c1ccc(N=NN2CCOCC2)cc1`, the NAD/ADPR ratio is inactive: 3.
For the compound `Clc1ccccc1/C=C/c1ccnc2ccccc12`, the NAD/ADPR ratio is inactive: 3.
Regarding `CCNc1nc(Cl)nc(-c2cn(-c3ccccc3)c3ccccc23)n1`, the NAD/ADPR ratio is inactive: 3.
Consider `CC1=CC(=C2C=CC(=O)C=C2)C=C(C)N1C`, for which the NAD/ADPR ratio was inactive: 3.
With `O=C1CC(c2ccc(O)cc2)Oc2cc(O)cc(O)c21` (centres undefined), the NAD/ADPR ratio was inactive: 3.
In the case of `O=C(Nc1cccc(Cl)c1)Nc1nccs1`, the NAD/ADPR ratio was inactive: 3.
Regarding `CN(C)c1ccc(/C=C(\C#N)C(=O)c2ccccc2)cc1`, the NAD/ADPR ratio was inactive: 3.
With `COc1ccccc1NC(=O)Nc1cc(C(C)C)ccc1C` the figure was inactive: 3; with `Cc1c([N+](=O)[O-])oc2c1C(=O)NCCC2`, inactive: 3; with `CCC(C)NC(=O)c1cccc(C)c1` (centres undefined), inactive: 3.
`CN(c1cccnc1)c1ncnc2[nH]ncc12`: the NAD/ADPR ratio was inactive: 3.
As for `Cc1ccc(Nc2nc(Cl)nc3ncn(C)c23)c(C)c1`, the NAD/ADPR ratio is inactive: 3.
Turning to `CCN(CC)CCCC(C)Nc1ccnc2cc(C(F)(F)F)ccc12` (centres undefined), the NAD/ADPR ratio was inactive: 3.
